In patent US20250129170A1:
Positions count from the first letter of the chain named. No constants are given. Whether binding was seen depends on the method and setting. Some results given as binding are weak or reduced against the parent protein; the word gives no strength.

Amino acid sequences for entries named in this document (tags omitted). A change or cut given only in a name is not applied to a line headed by its entry. Residues count along the entry.
UniProt P19235, residues 25-250: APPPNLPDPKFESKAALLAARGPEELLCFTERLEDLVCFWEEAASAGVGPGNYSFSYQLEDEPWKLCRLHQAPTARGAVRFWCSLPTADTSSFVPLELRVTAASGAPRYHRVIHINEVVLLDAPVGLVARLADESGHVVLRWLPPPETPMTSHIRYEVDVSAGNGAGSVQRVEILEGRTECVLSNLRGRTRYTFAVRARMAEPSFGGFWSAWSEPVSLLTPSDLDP

B1: anti-EPOR antibody clonotype517 (antibody, V domains shown)
VH: QVQLQESGPGLVKPSGTLSLTCAVSGGSISSNNWWSWVRQPPGKGLEWIGEIYHSGSTNYNPSLKSRVTISVDKSKNQFSLKLSSVTAADTAVYYCARVLNWNYGDAFDIWGQGTMVTVSS
VL: SYELTQPPSVSVSPGQTARITCSGDALPKKYAYWYQQKSGQAPVLVIYEDSKRPSGIPERFSGSSSGTMATLTISGAQVEDEADYYCYSTDSSGNHRGFGGGTKLTVL
B2: anti-EPOR antibody clonotype518 (antibody, V domains shown)
VH: B1 VH with N32S, V99D, L100P, N101S, W102I, N103V, Y104G, G105A, D106T
VL: QSALTQPRSVSGSPGQSVTISCTGTSSDVGGYNYVSWYQQHPGKAPKLMIYDVSKRPSGVPDRFSGSKSGNTASLTISGLQAEDEADYYCCSYAQGVVFGGGTKLTVL
B3: anti-EPOR antibody clonotype519 (antibody, V domains shown)
VH: QVQLQESGPGLVKPSGTLSLTCAVSGGSIISSNWWSWVRQSPGKGLGWIGEIYHSGSTTYNPSLKSRVTISVDKSKNQFSLKLSSVTAADTALYYCARSHIVGVNGGFDYWGQGTLVTVSS
VL: SSELTQDPAVSVALGQTVRITCQGDSLRSYYASWYQQKPGQAPVLLIYGKNNRPSGIPDRFSGSSSGNTASLTITGAQAEDEADYYCNSRDSSGNHWVFGGGTKLTVL
B4: anti-EPOR antibody clonotype520 (antibody, V domains shown)
VH: EVQLVESGGGLVKPGGSLRLSCAASGFTFSSYSMNWVRQAPGKGLEWVSSISSSSSYIYYADSVKGRFTISRDNAKNSLYLQMNSLRAEDTAVYYCARDRYNWNYRAFDIWGQGTMVTVSS
VL: B3 VL with L46V, W97L, G101T, L105V
B5: anti-EPOR antibody clonotype10 (antibody, V domains shown)
VH: QVQLQQSGPGLVKPSQTLSLTCAISGDSVSSNSAAWNWIRQSPSRGLEWLGRTYYRSKWYNDYAVSVKSRITINPDTSKNQFSLQLNSVTPEDTAVYYCARKGELLGAFDIWGQGTMVTVSS
VL: QSALTQPASVSGSPGQSITISCTGTSSDVGGYNYVSWYQQHPGKAPKLMIYEVSNRPSGVSNRFSGSKSGNTASLTISGLQAEDEADYYCSSYTSSSTWVFGGGTKLTVL
B6: anti-EPOR antibody clonotype13 (antibody, V domains shown)
VH: B5 VH with V65G, T72I, N74I, F82L, N87K, G103W, L106R, G107D
VL: QSALTQPASVSGSPGQSITISCTGTSSDVGGYNYVSWYQQHPGKAPKLMIYDVSKRPSGVSNRFSGSKSGNTASLTISGLQAEDEADYYCCSYAGRSTLGIDWVFGGGTKVTVL
B7: anti-EPOR antibody clonotype36 (antibody, V domains shown)
VH: EVQLVESGGGLVTPGGSLRLSCAASGFTFNNYSMNWVRQAPGKGLEWVSSISSSSSYIYYADSVKGRFTISRDNAKNSLYLPMISLRAEDTAVYYCARDGITGTTFYFDYWGQGTLVTVSS
VL: B5 VL with A8R, I18V, E52D, N55K, S61P, N62D, S91C, T94A, S95G, S97Y
B8: anti-EPOR antibody clonotype44 (antibody, V domains shown)
VH: QVQLVQSGAEVKKPGASVKVSCKASGYTFTSYGISWVRQAPGQGLEWMGWISPYNGNTNYAQNLQDRVTMITDTSTTTAYMELRSLRSDDTAVYYCARNHYYYMDVWGKGTTVTVSS
VL: QSALTQPASVSGSPGQSITISCTGTSSDVGGYNYVSWYQQHPGKAPKLMIYDVSKRPSGVSNRFSGSKSGNTASLTISGLQAEDEADYYCCSYAGSSTYVVFGGGTKLTVL
B9: anti-EPOR antibody clonotype56 (antibody, V domains shown)
VH: EVQLVESGGDLVQPGGSLKLSCAASGFSFSGSTLHWVRQASGKGLEWIGHIRSKPNNYATLYGASVKGRFTISRDDSKNTAYLQMNSLKIEDTAVYYCNGVYGGSSYFFDYWGQGTLVTVSS
VL: QAVLTQPASLSASPGASASLTCTLRSGINVGTYRIYWYQQKPGSPPQYLLRYKSDSDKQQGSGVPSRFSGSKDASANAGILLISGLQSEDEADYYCMIWHSSAVVFGGGTKLTVL
B10: anti-EPOR antibody clonotype69 (antibody, V domains shown)
VH: QVQLQESGPGLVKPSGTLSLTCAVSGGSISSSNWWSWVRQPPGKGLEWIGEIYHSGSTNYNPSLKSRVTISVDKSKNQFSLKLSSVTAADTAVYYCARRGAARPFDYWGQGTLVTVSS
VL: QAVLTQPASLSASPGASASLTCTLRSGINVGTYRIYWYQQKPGSPPQYLLRYKSDSDKQQGSGVPSRFSGSKDASANAGILLISGLQSEDEADYYCMIWHSSAYVVFGGGTKLTVL
B11: anti-EPOR antibody clonotype95 (antibody, V domains shown)
VH: EVQLVESGGGLVQPGGSLRLSCAASGFTFSSYSMNWVRQAPGKGLEWVSYISSSSSTIYYADSVKGRFTISRDNAKNSLYLQMNSLRDEDTAVYYCARDRYNFDYWGQGTLVTVSS
VL: QSALTQPRSVSGSPGQSVTISCTGTSSDVGGYNYVSWYQQHPGKAPKLMIYDVSKRPSGVPDRFSGSKSGNTASLTISGLQAEDEADYYCCSYAGSSWVFGGGTKLTVL
B12: anti-EPOR antibody clonotype102 (antibody, V domains shown)
VH: EVQLVQSGAEVKKPGESLKISCKGSGYSFTSYWIGWVRQMSGKGLEWMGIIYPSDSDTRYSPSFQGQVTISADKSISTAYLQWSSLKASDTAMYYCARQINWGAIDYWGQGTLVTVSS
VL: B8 VL with Y99F
B13: anti-EPOR antibody clonotype103 (antibody, V domains shown)
VH: QVQLVQSGAEVKKPGASVKVSCKASGYTFTSYGISWVRQAPGQGLEWMGWISVYNGNTNYAQKLQGRVTMTTDTSTSTAYMELRSLRSDDTAVYYCARQITATRGFDYWGQGTLVTVSS
VL: B8 VL with Y99F
B14: anti-EPOR antibody clonotype109 (antibody, V domains shown)
VH: B5 VH with N37S, G103W, L106R, G107D, A108T
VL: B6 VL with R96S, V111L
B15: anti-EPOR antibody clonotype110 (antibody, V domains shown)
VH: QVQLQQWGAGLLKPSETLSLTCAVYGGSFSGYYWSWIRQPPGKGLEWIGEINHSGSTNYNPSLKSRVTISVDTSKNQFSLKLSSVTAADTAVYYCASYGDFFDYWGQGTLVTVSS
VL: LPVLTQPPSASALLGASIKLTCTLSSEHSTYTIEWYQQRPGRSPQYIMKVKSDGSHSKGDGIPDRFMGSSSGADRYLTFSNLQSDDEAEYHCGESHTIDGQVGVVFGGGTKLTVL
B16: anti-EPOR antibody clonotype111 (antibody, V domains shown)
VH: EVQLVESGGGLVKPGGSLRLSCAASGFTFSSYSMNWVRQAPGKGLEWVSSISSSSSYIYYADSVKGRFTISRDNAKNSLYLQMNSLRAEDTAVYYCARETELTVMDVWGKGTTVTVSS
VL: B15 VL with V104W
B17: anti-EPOR antibody clonotype397 (antibody, V domains shown)
VH: QVQLQESGPGLVKPSQTLSLTCTVSGGSISSGGYYWSWIRQHPGKGLEWIGYIYYIGITYYNPSLKSRVTISVDTSKNQFSLKLSSVTAADTAVYYCARAFDYWGQGTLVTVSS
VL: SYVLTQPPSVSVPPGKTARITCGGNNVGSKSVHWYQQKPGQAPVLVIYYDTDRPSGIPERFSGSNSGNTATLSISRVEAGDEADYYCQVWDSRSDHVVFGGGTKLTVL
B18: anti-EPOR antibody clonotype400 (antibody, V domains shown)
VH: QVQLVQSGAEVKKPGASVKVSCKASGYTFTSYDINWVRQATGQGLEWMGWMNPNSGNTGYAQKFQGRVTMTRNTSISTAYMELSSLRSEDTAVYYCARVAFDIWGQGTMVTVSS
VL: B11 VL with R8A, V18I, D52E, K55N, P61S, D62N, C91S, A94T, G95S, W98T
B19: anti-EPOR antibody clonotype407 (antibody, V domains shown)
VH: EVQLVESGGGLVKPGGSLRLSCAASGFTFSNAWMSWVRQAPGKGLEWVGRIKSKSDGGTRDYAAPVKGRFTISRDDSKNTLYLQMNSLKTEDTAMFYCTTGGTHWGQGTLVTVSS
VL: SYELTQPPSVSVSPGQTARITCSADALPKQYAYWYQQKPGQAPVLVIYKDSERPSGIPERFSGSSSGTTVTLTISGVQAEDEADYYCQSADSSATWVFGGGTKLTVL
B20: anti-EPOR antibody clonotype409 (antibody, V domains shown)
VH: B19 VH with S55T, R60T, A64T, D75A, Y82F, N86S, M95V, F96Y, Y97F, H104N
VL: SYELTQPPSVSVSPGQTARITCSADALPKQYAYWYQQKPGQAPVVVIYKDSERPSGIPERFSGSSSGTTVTLTISGVQAEDEADYYCQSLDSSGTYWVFGGGTKLTVL
B21: anti-EPOR antibody clonotype424 (antibody, V domains shown)
VH: QVQLVESGGGLVKPGGSLRLSCAASGFTFSDYYMSWIRQAPGKGLEWVSYISSSGSTIYYPDSVKGRFTISRDNAKNSLYLQMNSLRAEDTAVYYCARDGAAFDIWGQGTMVTVSS
VL: B5 VL with E52D, N55K, A86T, S91C, T94A, S95G, W99L
B22: anti-EPOR antibody clonotype426 (antibody, V domains shown)
VH: QIQLVQSGAEMKKPGASVKVSCKASGYTFTNYGISWVRQAPGQGLEWMGWINTYNDKTNFALKVQGRVTMTTDTSTSTAYMELRSLRSDDTAVYYCARDRGYSFDYWGQGTLVTVSS
VL: SYELTQPPSVSVSPGQTASITCSGDKLGDKHACWYQQKPGQSPMLVIYQDSKRPSGIPERFSGSNSGNTATLTISGTQPMDEADYYCQAWDSSTFGGGTKLTVL
B23: anti-EPOR antibody clonotype427 (antibody, V domains shown)
VH: B8 VH with P53A, N63R, D66G, I71T, T77S, R87I, M104L
VL: SYELTQPSSVSVSPGQTARITCSGDVLAKKYARWFQQKPGQAPVLVIYKDSERPSGIPERFSGSSSGTTVTLTISGAQVEDEADYYCYSAADNNRVFGGGTKLTVL

Molecular target: recombinant hEPOR-Fc (SinoBiological, Cat #10707-H02H) (human) (UniProt P19235)
Experiment: B cells sorted by flow cytometry on labeled hEPOR-Fc, single cell sequencing

Binder | binding
B1 | binds
B2 | binds
B3 | binds
B4 | binds
B5 | binds
B6 | binds
B7 | binds
B8 | binds
B9 | binds
B10 | binds
B11 | binds
B12 | binds
B13 | binds
B14 | binds
B15 | binds
B16 | binds
B17 | binds
B18 | binds
B19 | binds
B20 | binds
B21 | binds
B22 | binds
B23 | binds
